Reference: the supplement of paper PMC3334620
Whole data set: some 33,000 sequences, median “E-score (-0.5 to 0.5)” near -0.0014, cut for the highest 2% near 0.25. The list shows a part of the results.

biological target: T1, Cad1 (UniProt P24813); test: PBM E-score (8-mer binding enrichment) (E-score (-0.5 to 0.5)); higher = stronger / more preferred TF binding; details: protein concentration: 100 nM; construct: GST-full length
T1 sequence: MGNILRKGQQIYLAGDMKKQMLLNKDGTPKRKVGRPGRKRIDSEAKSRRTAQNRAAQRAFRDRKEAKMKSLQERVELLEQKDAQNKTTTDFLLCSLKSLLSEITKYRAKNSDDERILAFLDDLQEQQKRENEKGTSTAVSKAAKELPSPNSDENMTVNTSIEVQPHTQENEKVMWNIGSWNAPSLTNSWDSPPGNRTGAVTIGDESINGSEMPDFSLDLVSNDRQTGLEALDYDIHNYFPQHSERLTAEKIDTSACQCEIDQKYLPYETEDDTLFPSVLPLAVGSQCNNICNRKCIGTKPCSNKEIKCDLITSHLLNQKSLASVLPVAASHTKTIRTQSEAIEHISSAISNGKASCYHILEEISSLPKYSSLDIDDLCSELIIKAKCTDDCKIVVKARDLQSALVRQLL
Summary of the method: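 For each ungapped eight-base word taken together with its reverse complement, the Universal PBM Analysis Suite assigned an E-score. Binding data came from GST-tagged yeast transcription factors, applied at about 100-200 nM, on universal all-10-mer Agilent arrays made double-stranded by primer extension. Fluorescent anti-GST marked bound protein, and scans were normalised with masliner.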

Row | Sequence | PBM E-score
1 | CGGTGTAC | -0.136
2 | CTGAAAAC | 0.0776
3 | CGCGGCTA | 0.128
4 | CGGAGTCC | 0.114
5 | AAGGGCAC | -0.198
6 | GCATTGCA | 0.107
7 | ACTCATAA | -0.0073
8 | CTCTAAAG | -0.144
9 | AGCTCATG | 0.0322
10 | ACGCAACC | 0.135
11 | CTGCCCCC | -0.341
12 | AAAGGTAG | -0.16
13 | CTGACGCC | -0.153
14 | CACTGAAC | 0.06
15 | ACGCGGTC | 0.128
16 | ATCCCTAG | 0.0209
17 | ACCACCTA | -0.202
18 | CGTTGGCA | 0.101
19 | AACATCGT | -0.0182
20 | GGGGTTGA | -0.2
21 | GATAAACC | 0.124
22 | GACCTCTC | 0.0626
23 | CTCGGAAG | -0.0595
24 | AACTACCG | -0.0957
25 | CTAGAGAC | -0.243

Row | Sequence | PBM E-score
26 | ACGGATTG | 0.143
27 | GATGCTGC | -0.0697
28 | AAAGGGTG | -0.0289
29 | CCTACCGA | -0.0591
30 | CGGGTCGA | -0.055
31 | ACATGTGC | 0.0691
32 | CGGCTTTC | -0.0736
33 | AGCTAGAG | -0.0985
34 | ACCCCTCT | -0.244
35 | ACTCCTTC | -0.167
36 | GAGGTCTA | -0.0987
37 | ACCGTGTG | -0.0277
38 | ACTGTCAG | 0.0975
39 | GTTAGGCA | -0.153
40 | CGCAATCC | 0.248
41 | AATTACTC | 0.239
42 | ATTCAATA | 0.16
43 | CGATCGAC | 0.272
44 | TTCATCAA | -0.038
45 | TATTCTAA | 0.232
46 | TAGCATGA | 0.11
47 | CGAATATC | 0.188
48 | CACCTGAG | -0.0553
49 | AGGATAAG | 0.059
50 | ACAGGAAT | -0.0277

Row | Sequence | PBM E-score
51 | GCGGCTAA | 0.04
52 | TGGGTGAA | 0.171
53 | GACCAGGA | -0.0841
54 | AACCAATG | 0.109
55 | GCGTATGA | -0.0342
56 | AATTATAG | 0.0146
57 | AAGCCAAC | -0.0179
58 | CCAGTCCC | -0.0713
59 | CAGCGTGC | -0.0014
60 | TGCCTCCA | -0.253
61 | ATTTTCAC | 0.125
62 | AGGTAAGA | 0.0122
63 | CTAGCGAG | -0.0728
64 | ATCAACAT | 0.24
65 | AAGAACGT | 0.106
66 | CCCCATGC | -0.218
67 | TTCGTCAA | -0.103
68 | CAATTCAG | -0.0912
69 | GTCTAAAC | 0.143
70 | ATCAGTAC | 0.0502
71 | CAGACCCG | -0.182
72 | ACGGGCAA | -0.05
73 | CTACTATC | 0.229
74 | ACACATGC | -0.0854
75 | GTCTCGTA | -0.141

Shown in markdown: part of the list above.

| Row | Sequence | PBM E-score |
| --- | --- | --- |
| 63 | CTAGCGAG | -0.0728 |
| 64 | ATCAACAT | 0.24 |
| 65 | AAGAACGT | 0.106 |
| 66 | CCCCATGC | -0.218 |

(list continues)

Row | Sequence | PBM E-score
76 | GAGGATCC | 0.00114
77 | CATTCTGC | 0.00645
78 | TAAACAGA | 0.0907
79 | ATCACCTA | -0.125
80 | CTCAAGCA | -0.169
81 | AATCATGC | -0.0973
82 | AAGTGGAG | 0.0645
83 | CAAAACGA | 0.0549
84 | ATGAGATC | 0.0315
85 | CAAATTAA | 0.207
86 | CACGACGA | -0.197
87 | ATCCGTTC | 0.229
88 | AACGGTGA | -0.167
89 | AATACAAT | 0.124
90 | AGCACTTC | 0.0469
91 | GAGCAATA | -0.0516
92 | AAGTGGGG | -0.28
93 | CATTAGTA | 0.304
94 | ACCCATCC | -0.166
95 | CACATCTC | 0.059
96 | TCGTTAAA | 0.0362
97 | TCATCAAA | -0.0451
98 | TCGATAGA | 0.022
99 | AGAGCCCG | -0.192
100 | GAACACCA | 0.113

Row | Sequence | PBM E-score
101 | ATTAACAA | 0.201
102 | CCTCCAAG | -0.0791
103 | ACTCATCA | -0.0343
104 | ACCGTTAT | 0.0686
105 | AATCGATA | 0.288
106 | AGGCACCA | 0.0182
107 | CCTTCCGC | -0.212
108 | GAATGACC | -0.161
109 | ACGCCTAC | -0.225
110 | AATAGTTA | 0.0477
111 | GCGTTGTA | 0.0976
112 | CTAGCCAC | -0.198
113 | CCATGAAA | 0.0805
114 | ACGGATCT | 0.0244
115 | GTATTCGA | -0.167
116 | GTGGGCGA | 0.0578
117 | ACTAGTAT | 0.148
118 | CAGAGGAC | -0.119
119 | ATAGAACC | -0.124
120 | ACAGACCA | 0.166
121 | CCGGAGAC | 0.036
122 | ACAAGGGT | -0.0344
123 | CTGACCGC | 0.0147
124 | AAGGATAG | -0.0192
125 | TCATAGGA | 0.046

Row | Sequence | PBM E-score
126 | ACATGGGT | 0.0464
127 | GGAACTCA | -0.0964
128 | TCATGGAA | 0.029
129 | AGTAGCAC | -0.0426
130 | ACGTTAGG | -0.0545
131 | ACGAACGC | 0.176
132 | AGCTACGC | -0.0406
133 | TAAAGAAA | 0.132
134 | CTTCTCTC | -0.0707
135 | ACGCCTCG | -0.0665
136 | CTTAGCTA | 0.092
137 | CGCGGATA | 0.258
138 | GGTAGTCA | -0.206
139 | ATCACCAG | 0.0749
140 | ACTGAAAA | 0.151
141 | GTATCCAA | 0.00237
142 | GAATTCAC | 0.146
143 | ATTGACAG | 0.00745
144 | GAAAGTCC | -0.00621
145 | CACCGGAA | 0.145
146 | CCATGTGA | -0.11
147 | AAATTAGA | 0.191
148 | CTCGTTGA | -0.0911
149 | TCCAATCA | -0.0209
150 | ACCTTTGA | -0.159

Row | Sequence | PBM E-score
151 | CAGCCGCA | -0.142
152 | ATCCTCAA | -0.148
153 | GCAATCGA | 0.0723
154 | CGGGTAAC | -0.115
155 | ACCAGCGA | -0.0754
156 | ATTACGCG | 0.144
157 | ACGTCATG | 0.0602
158 | CTGCACAG | 0.118
159 | CACACCAG | -0.0379
160 | AATCCCCA | -0.0265
161 | ACGACGCA | 0.0359
162 | GGGAAGAC | -0.154
163 | TAGCTAAA | 0.0384
164 | AGGGATGG | 0.0662
165 | AGTTTTGC | 0.141
166 | CGGACTAA | 0.0202
167 | AGTAGCCC | -0.107
168 | CGCAGTTC | 0.0797
169 | CCACTAAG | 0.0649
170 | AGTGGCAT | -0.0791
171 | GCGAAGCA | 0.0455
172 | GGTACTAC | -0.0922

Excerpt: entries 120 to 122
Row | Sequence | PBM E-score
120 | ACAGACCA | 0.166
121 | CCGGAGAC | 0.036
122 | ACAAGGGT | -0.0344
